Measurements reported in the supplement of paper PMC12889115.
The list shows a part of the results. Values are raw readings; no control value is given beside them.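 In the initial screen, polymyxin B was used at a concentration that permeabilizes Salmonella's outer membrane but not its inner membrane. Maximum growth was set by DMSO wells with or without polymyxin B. Since plates varied, data were ranked per plate, and compounds giving the lowest OD600 advanced as hits.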

Test system: Salmonella enterica serovar Typhimurium SL1344
Assay: bacterial growth OD600 after 18 h with compound and polymyxin B; higher = more bacterial growth (less inhibition)
Details: 50 µM, Mueller-Hinton broth

| Structure (SMILES) | bacterial growth OD600 (polymyxin B 1 µg/mL) | bacterial growth OD600 (polymyxin B 0.75 µg/mL) |
| --- | --- | --- |
| O=C(Nc1ccnn1C1CCN(Cc2cccc3nonc23)CC1)c1ccccc1 | 0.941 | – |
| CCn1ccnc1CN1CCc2onc(-c3ccc4c(c3)OCO4)c2C1 | – | 0.813 |
| Cc1nonc1CN(C)c1ccc(-c2nc(COc3ccccc3)no2)cn1 | 0.645 | – |
| Cc1ccc(C(=O)NCc2cccnc2N2CCOCC2)s1 | – | 0.776 |
| CN(CCc1ccccn1)c1ncccc1CNC(=O)c1cc2sccc2[nH]1 | 0.837 | – |
| C[C@@H]1CN(Cc2c(C(=O)N3CCN(C4CCCCC4)CC3)nc3ccccn23)C[C@H](C)O1 | – | 0.817 |
| O=C(Cn1cc(NC(=O)CCOc2ccccc2)cn1)NCCCn1cccn1 | – | 0.99 |
| CCC(=O)N[C@@H]1c2ccccc2C2(CCN(C(=O)c3cccs3)CC2)[C@H]1OCc1cccnc1 | – | 0.779 |
| Cc1c(CC(=O)NC2CC2)c2c(n1CCc1ccccc1)CCCC2=O | – | 0.963 |
| COc1ccc(-c2nn(-c3ccccc3)cc2CN2CCC(C(N)=O)CC2)c(F)c1 | 0.874 | – |
| Cc1nc(N2CCCCCCC2)ncc1C(C)NC(=O)C1CCOCC1 (configuration not stated) | 1.09 | – |
| CN(Cc1nccs1)C(=O)C1CCC(=O)N(CCCc2ccccc2)C1 (configuration not stated) | 0.89 | – |
| CC(C)NC(=O)c1ccc(OC2CCN(S(C)(=O)=O)CC2)c(Cl)c1 | – | 1.01 |
| O=C(c1csc2nc(-c3ccccc3Cl)cn12)N1CCCC1 | – | 0.01 |
| c1ccc(-c2nc3c(c(N4CCN(C5CCCC5)CC4)n2)CCC3)cc1 | 0.869 | – |
| O=C(CCCn1nnnc1CN1CCOCC1)N1CCCN(C2CCCCC2)CC1 | 1 | – |

| Structure (SMILES) | bacterial growth OD600 (polymyxin B 1 µg/mL) | bacterial growth OD600 (polymyxin B 0.75 µg/mL) |
| --- | --- | --- |
| Cc1cccc(C)c1Oc1ncccc1CNC(=O)CC1CN(C)CCN1C (configuration not stated) | 1.29 | – |
| Cc1nc(C)c(C(=O)N2CCc3[nH]nc(-c4ccccc4)c3C2)s1 | – | 0.878 |
| CCOC(=O)N1CCN(C(=O)c2ccc(N3CCC(NCc4ccc(C)c(F)c4)CC3)cc2)CC1 | – | 0.833 |
| Cc1ccc(CN(C)C(=O)CC2(c3ccccc3)CC(=O)N(Cc3cccnc3)C2=O)cc1 (configuration not stated) | – | 0.362 |
| Cc1ccsc1CN(C)C(=O)CC(c1ccccc1)c1ccc2c(c1)OCO2 (configuration not stated) | 0.401 | – |
| COCC1CCN(C(=O)CC(c2cccc(O)c2)c2ccccc2Cl)CC1 (configuration not stated) | 0.561 | – |
| CN(C)S(=O)(=O)NCC1CCCN(Cc2ccc(O)c(Cl)c2)C1 (configuration not stated) | – | 0.787 |
| CCS(=O)(=O)Nc1cc(C(=O)NCCCn2cccn2)c2c(c1)nc(-c1ccccc1)n2C | – | 0.854 |
| O=C(c1ccc(N2CCCCC2)cc1)N1CCOc2ccc(CN3CCCCC3CO)cc2C1 (configuration not stated) | – | 0.86 |
| CC(=O)N1CCCC(Nc2ccc(C)c(C)c2)C1 (configuration not stated) | 0.922 | – |
| CCOC(=O)N1CCN(C(=O)c2cc(COc3ccc(F)cc3Cl)on2)CC1 | 0.877 | – |
| Cc1ccc(Oc2ncccc2CNC(=O)c2cnn(C(C)C)c2)cn1 | 1.1 | – |
| COc1ccccc1CC(=O)N1CCC2(CCCN(CC3CC3)C2)C1 (configuration not stated) | 0.746 | – |
| C=CCNCC1(O)CCCN(Cc2cccc(F)c2F)C1=O (configuration not stated) | 1.01 | – |
| Cc1ccccc1N1CCN(C2CCCN(C(=O)CCC(C)C)C2)CC1 (configuration not stated) | 1.03 | – |
| COc1cccc(CC2(CO)CCN(C/C(Cl)=C/c3ccccc3)CC2)c1 | – | 0.833 |

Pulled one by one from the entries so far (two):

| Structure (SMILES) | bacterial growth OD600 (polymyxin B 1 µg/mL) | bacterial growth OD600 (polymyxin B 0.75 µg/mL) |
| --- | --- | --- |
| Cc1ccccc1N1CCN(C2CCCN(C(=O)CCC(C)C)C2)CC1 (configuration not stated) | 1.03 | – |
| CC(=O)N1CCCC(Nc2ccc(C)c(C)c2)C1 (configuration not stated) | 0.922 | – |
